From PubChem BioAssay AID743255 (National Center for Advancing Translational Sciences (NCATS), 2014)
Hit rate of the full screen: of about 390,000 compounds, about 910 (0.23%) were called active. This list was built around the results that the source calls inconclusive (neither active nor inactive); the mix of calls is not that of the screen. The call rests on the fitted dose curve; in most records, active means well fitted inhibition curve with a large enough effect; inconclusive means small, poorly fitted or top-dose-only effect; inactive means no such curve, though single readings can be large or run the other way. Potencies of inconclusive entries are doubtful fits and often do not repeat.
Further: nearly all actives have a fitted effect of over 60% in size.
On the % scale 0 is the no-effect control and ±100 the full control effect; potency means the concentration at half of the fitted maximal effect.

Protein sequences, listed by entry. Tags and fused reporters are not part of them. Lines headed by an entry give the natural chain unless they say otherwise; changes in a name come on top.
UniProt O94782: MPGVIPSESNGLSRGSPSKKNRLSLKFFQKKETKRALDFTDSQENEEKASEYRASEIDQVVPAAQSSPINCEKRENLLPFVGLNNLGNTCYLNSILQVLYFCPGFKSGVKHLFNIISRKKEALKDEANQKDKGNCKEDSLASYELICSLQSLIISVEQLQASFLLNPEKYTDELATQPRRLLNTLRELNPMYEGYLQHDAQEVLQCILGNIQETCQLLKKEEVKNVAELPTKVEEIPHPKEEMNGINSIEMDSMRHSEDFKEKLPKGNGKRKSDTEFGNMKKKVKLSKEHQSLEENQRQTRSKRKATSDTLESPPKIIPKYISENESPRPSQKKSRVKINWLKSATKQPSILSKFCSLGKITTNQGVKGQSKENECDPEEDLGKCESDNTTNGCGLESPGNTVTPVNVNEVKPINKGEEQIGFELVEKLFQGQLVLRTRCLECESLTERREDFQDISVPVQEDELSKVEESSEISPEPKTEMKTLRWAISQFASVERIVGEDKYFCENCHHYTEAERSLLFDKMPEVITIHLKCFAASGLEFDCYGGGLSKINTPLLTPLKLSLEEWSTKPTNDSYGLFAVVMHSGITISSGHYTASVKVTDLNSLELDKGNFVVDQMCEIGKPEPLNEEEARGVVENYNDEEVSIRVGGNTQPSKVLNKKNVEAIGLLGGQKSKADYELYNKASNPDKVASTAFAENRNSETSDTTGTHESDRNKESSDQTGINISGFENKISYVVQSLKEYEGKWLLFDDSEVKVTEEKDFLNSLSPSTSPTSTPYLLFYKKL

The compounds below were run against Ubiquitin carboxyl-terminal hydrolase 1 (Homo sapiens) (UniProt O94782) (assay: Inhibitors of USP1/UAF1: Primary Screen). Conditions: recombinant USP1/UAF1, Ub-Rhodamine cleavage fluorescence; activity change, negative = inhibition: at 57.1 µM (top of the series).
Outline: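 USP1/UAF1 complex (1 nM) preincubated 15 min at room temperature with compound, then Ub-Rho substrate (150 nM final) added. Kinetic fluorescence at 480/540 nm over 6 reads at 60 s intervals; 50 mM HEPES pH 7.8, 0.5 mM EDTA, 0.1 mg/ml BSA, 1 mM TCEP, 0.01% Tween-20.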
With `Cc1ncc([N+](=O)[O-])n1CCOC(N)=O` the Potency was inconclusive: 39.8 µM [inhibitor, partial curve, poor fit]. With `O=C(c1ccc2c(c1)OCO2)C1CCCN(Cc2ccc(F)c(F)c2)C1` (stereo not given) the Potency was “inactive”. With `C=C1[C@H]2CC[C@H]3[C@]4(C)C[C@H](O[C@@H]5OC(CO)[C@@H](OSOOO)[C@H](OS(=O)(=O)O)[C@H]5OC(=O)CC(C)C)C[C@@H](C(=O)O)[C@H]4CC[C@]3(C2)[C@H]1O` (stereo not given in full) the Potency was inconclusive: 0.316 µM [inhibitor, full curve]. `CCOC(=O)c1c(/N=C/c2c(O)n(-c3ccccc3F)c(=S)[nH]c2=O)sc2c1CCCC2` was tested, and the Potency was “inactive”. In the case of `Cc1cc(=O)oc2cc(Oc3ccc([N+](=O)[O-])cc3C(F)(F)F)ccc12`, the Potency is reported as inconclusive: 39.8 µM [inhibitor, single point]. With `COc1ccc(OCCn2c(NC(=O)c3ccc(OC)cc3)nc3ccccc32)cc1` the Potency was inconclusive: 22.4 µM [inhibitor, partial curve, poor fit]. In the case of `COc1cc(/C=C(/C)[N+](=O)[O-])ccc1OCc1ccccc1Cl`, the Potency is reported as inconclusive: 17.8 µM [inhibitor, partial curve]. In the case of `CCN1C(=O)/C(=C2\C=Cc3ccccc3N2CC)OC1=S`, the Potency is reported as inconclusive: 2.24 µM [inhibitor, partial curve]. With `OC(c1cccc(Cl)c1)(c1cccc(Cl)c1)C1CN2CCC1CC2` (stereo not given) the Potency was inconclusive: 44.7 µM [inhibitor, partial curve, poor fit]. `C/C(=N\N1CCCCC1c1cccnc1)c1c(O)n(C2CCCCC2)c(=S)[nH]c1=O` (stereo not given) was tested, and the Potency was inconclusive: 31.6 µM [inhibitor, partial curve]. In the case of `O=C(CCC(=O)N1C[C@H]2C[C@@H](C1)c1cccc(=O)n1C2)NCc1ccccc1`, the activity change, negative = inhibition is reported as inconclusive: -30.7% [inhibitor]. `FC(F)=C(F)CCSc1ncn[nH]1` was tested, and the Potency was inconclusive: 63.1 µM [inhibitor, partial curve, poor fit]. In the case of `CC(=O)c1ccc2c(c1)OCO2`, the Potency is reported as inconclusive: 0.0316 µM [inhibitor, full curve, poor fit]. In the case of `CC1(C)CN=C(Nc2ccc(F)c(F)c2)S1`, the Potency is reported as “inactive”. In the case of `CCC1(CC)C(=O)N(Cc2ccccc2)C(=O)N(Cc2ccccc2)C1=O`, the Potency is reported as “inactive”. With `O=C(COC(=O)Cc1ccccc1)Nc1cc(S(=O)(=O)N2CCCCC2)ccc1Cl` the Potency was “inactive”. `Cc1cc(/C=C2\C(=O)NC(=O)N(c3cccc(F)c3)C2=O)c(C)n1-c1ccc(C(=O)O)c(Cl)c1` was tested, and the Potency was “inactive”. With `COC(=O)C1=C(c2ccc(-c3ccccc3)c(F)c2)C[C@@H]2CC[C@H]1N2C(=O)NCc1cc(C)oc1C(F)(F)F` the Potency was inconclusive: 7.94 µM [inhibitor, partial curve, poor fit]. `CCOC(=O)C1(c2ccccc2)CCN(CCc2ccc(NC(=O)CCC(=O)O)cc2)CC1` was tested, and the Potency was inconclusive: 44.7 µM [inhibitor, partial curve, poor fit]. In the case of `Cc1nnc(NC(=O)c2cccn(Cc3cccc([N+](=O)[O-])c3)c2=O)s1`, the Potency is reported as “inactive”. In the case of `N#Cc1cccc(NC(=O)CSc2nc3c(cc2C#N)N2CCC3CC2)c1`, the Potency is reported as “inactive”. In the case of `CCC(=NCc1cc(OC)cc(OC)c1)c1c(O)n(C2CCCCC2)c(=O)[nH]c1=O`, the Potency is reported as inconclusive: 50.1 µM [inhibitor, partial curve, poor fit]. In the case of `O=C1NC(=O)C(CCc2ccncc2)(CCc2ccncc2)C(=O)N1Cc1ccc(F)cc1`, the Potency is reported as “inactive”. In the case of `Cc1cccc(NC2=NCCCS2)c1C`, the Potency is reported as inconclusive: 7.08 µM [inhibitor, partial curve, poor fit]. For `O=c1[nH]c(=S)[nH]c(O)c1/C=C1\C=Nc2ccccc21`, the Potency was inconclusive: 11.2 µM [inhibitor, partial curve]. For `Nc1ccc2ccc3cccc[n+]3c2c1`, the Potency was active: 28.2 µM. `COC(=O)C1=C(c2ccc(OC(F)(F)F)cc2)C[C@@H]2CC[C@H]1N2C(=O)N1CCC(C)CC1` was tested, and the Potency was inconclusive: 50.1 µM [inhibitor, partial curve, poor fit]. For `CC(C)(C)c1ccc(OCC(=O)Nc2ccc(Cl)cc2C(=O)c2ccccc2)cc1`, the Potency was inconclusive: 12.6 µM [inhibitor, partial curve, poor fit]. `CC(C)CNC(=O)c1c(N)n(Cc2ccc3c(c2)OCO3)c2nc3ccccc3nc12` was tested, and the Potency was “inactive”. `O=C(O)CSCC(=O)N(Cc1ccccc1)c1nc(-c2ccccc2)c(-c2ccccc2)s1` was tested, and the Potency was inconclusive: 44.7 µM [inhibitor, single point]. `Cc1c(N)cccc1[N+](=O)[O-]` was tested, and the Potency was inconclusive: 28.2 µM [inhibitor, single point]. With `Cc1cc(NC(=O)CCl)no1` the Potency was “inactive”. With `Nc1ccc(C2(c3ccc(N)cc3)c3ccccc3-c3ccccc32)cc1` the Potency was “inactive”. `CCc1ccccc1N1C(=O)/C(=C/c2ccc(N3CCN(C)CC3)o2)C(=O)NC1=S` was tested, and the Potency was inconclusive: 35.5 µM [inhibitor, partial curve]. With `CC(C)CCOC(=O)c1c(N)n(CC2CCCO2)c2nc3ccccc3nc12` (stereo not given) the Potency was inconclusive: 31.6 µM [inhibitor, partial curve]. For `COc1ccc(N2C(=O)/C(=C/c3ccc(C)o3)C(=O)NC2=S)c(OC)c1`, the Potency was inconclusive: 39.8 µM [inhibitor, partial curve]. In the case of `C=CCN1CC[C@]23c4c5ccc(O)c4O[C@H]2/C(=N/NC(=O)c2ccccc2)CC[C@@]3(O)[C@H]1C5`, the Potency is reported as inconclusive: 0.251 µM [inhibitor, full curve]. In the case of `CC(NC(=O)Oc1ccccc1)C(c1cccs1)N1CCOCC1` (stereo not given), the Potency is reported as inconclusive: 44.7 µM [inhibitor, partial curve, poor fit]. For `CC1=C[C@@H]2c3cccc4[nH]cc(c34)C[C@H]2N(C)C1`, the Potency was inconclusive: 35.5 µM [inhibitor, partial curve]. With `CCc1cccc(CC)c1NC(=S)N1CC2CC(C1)c1cccc(=O)n1C2` (stereo not given) the Potency was “inactive”. In the case of `Cc1ccccc1-n1c(O)c(/C=C/C=Nc2ccccc2)c(=O)[nH]c1=O`, the Potency is reported as active: 31.6 µM. For `CCN(CC)c1ccc(/C=N/c2sc3c(c2C#N)C2CCN3CC2)c(O)c1`, the Potency was inconclusive: 5.62 µM [inhibitor, partial curve]. `Oc1c(Br)cc(-c2ccccc2)cc1Br` was tested, and the Potency was inconclusive: 7.94 µM [inhibitor, single point]. In the case of `CCC(=Nc1cccc(C(F)(F)F)c1)c1c(O)n(C)c(=O)n(C)c1=O`, the Potency is reported as inconclusive: 4.47 µM [inhibitor, full curve, poor fit]. For `COCCCn1c(N)c(C(=O)Nc2ccccc2)c2nc3ccccc3nc21`, the Potency was inconclusive: 35.5 µM [inhibitor, partial curve]. `COc1ccc(C)cc1NC(=O)c1cccn(Cc2cccc([N+](=O)[O-])c2)c1=O` was tested, and the Potency was “inactive”. With `COC(=O)C1C(O)C(C)C(O)C(C)/C=C\C=C(/C)C(=O)Nc2c(C)c(OC(C)=O)c3c(c2O)C(=O)C(C)=C2OCOC(=C23)/C(C)=C/C(C)(O)C(O)C(C)C1O` (stereo not given) the Potency was inconclusive: 39.8 µM [inhibitor, partial curve]. `O=C1C=C2C=C[C@@H]3CC2(O1)[C@H]1CCCCN31` was tested, and the Potency was “inactive”. In the case of `COc1cc(C[C@@H](C)N)c(OC)cc1I`, the Potency is reported as inconclusive: 14.1 µM [inhibitor, partial curve, poor fit]. `O=C1NC(=O)C(Nc2ccc(Cl)c(Cl)c2)C(=O)N1` was tested, and the Potency was inconclusive: 31.6 µM [inhibitor, partial curve]. With `CCOP(=O)(OCC)C(O)c1ccccc1` (stereo not given) the Potency was “inactive”. In the case of `O=C(c1ccc(C(F)(F)F)cc1)N1CCC(c2noc(-c3ccc(S(=O)(=O)N4CCCC4)cc3)n2)CC1`, the Potency is reported as inconclusive: 1 µM [inhibitor, full curve, poor fit]. For `CCCCn1c(O)c(C(CC)=NCCc2ccccc2)c(=O)[nH]c1=O`, the Potency was “inactive”. With `O=C(OCc1c(-c2ccccc2)ncc2ccccc12)c1ccc(C(F)(F)F)cc1` the Potency was inconclusive: 4.47 µM [inhibitor, full curve, poor fit]. For `CC(C)N(C(=O)CCl)c1ccccc1`, the Potency was “inactive”. In the case of `CCn1cc(C(=O)NCCc2ccc(Cl)cc2)c(=O)c2cc(S(=O)(=O)N(C)C3CCCCC3)ccc21`, the Potency is reported as inconclusive: 20 µM [inhibitor, partial curve, poor fit]. With `Cc1ccc2nc(N3CCN(C)CC3)[nH]c2c1` the Potency was “inactive”. With `C=C(C)Cn1c(-c2cccc([N+](=O)[O-])c2)n[nH]c1=S` the Potency was inconclusive: 11.2 µM [inhibitor, partial curve, poor fit]. `CCOc1ccccc1N1C(=O)NC(=O)/C(=C/c2ccc3c4c(cccc24)CC3)C1=O` was tested, and the Potency was inconclusive: 44.7 µM [inhibitor, partial curve, poor fit]. With `COc1ccc(-c2nc(CN3C(=O)CN=C(c4ccccc4)c4cc(Cl)ccc43)c(C)o2)cc1` the Potency was inconclusive: 39.8 µM [inhibitor, partial curve, poor fit]. With `Cc1nc(-c2cccc(NC(=O)c3ccc(Cl)c(S(=O)(=O)N4CCCC4)c3)c2)cs1` the Potency was inconclusive: 44.7 µM [inhibitor, partial curve]. In the case of `CCOC(=O)c1cc(CC)sc1/N=C/C1C(=O)NC(=S)NC1=O`, the Potency is reported as inconclusive: 31.6 µM [inhibitor, partial curve]. In the case of `CC(C)Oc1cccc(NC(=O)c2cccn(Cc3ccc4c(c3)OC(F)(F)O4)c2=O)c1`, the Potency is reported as inconclusive: 39.8 µM [inhibitor, partial curve, poor fit]. With `Nc1c(C(=O)OC2CCCCC2)c2nc3ccccc3nc2n1CC1CCCO1` (stereo not given) the Potency was “inactive”. With `CCCCCn1c(N)c(C(=O)NCc2cccs2)c2nc3ccccc3nc21` the Potency was inconclusive: 39.8 µM [inhibitor, partial curve, poor fit].
